# Patent publication US20130023491A1, “BETA-CELL REPLICATION PROMOTING COMPOUNDS AND METHODS OF THEIR USE” (President and Fellows of Harvard College, priority 2009, published 2013)
# Some entries share one result that the patent states for a list of compounds. At least one structure is not confirmed: it was looked up by name or label, or the drawing left a doubt.
# System: β-cells (dispersed rat islet cells)
# Test: primary islet β-cell replication assay (PDX-1/ki-67 co-staining, automated imaging)
# Type: cell-based
# Protocol: Rat islets were isolated as previously described in Gotoh M, Maki T, Kiyoizumi T, Satomi S, Monaco A P: An improved method for isolation of mouse pancreatic islets. Transplantation 40:437-438, 1985, contents of which are herein incorporated by reference in their entirety. Isolated islets were cultured overnight in a tissue culture incubator. […]
# Once compound-treated islet cells were stained, β-cell replication was assessed via automated image acquisition and analysis using a Cellomics ArrayScanVTI. […] Second PDX-1 positive cells (selected objects) were counted based upon the average staining intensity within the predicted nuclear area (Note: total signal intensity was essentially equal in quality but was not typically used). Third, the number of PDX-1 positive cells (selected objects) that simultaneously were Ki-67 positive was determined by determining the average fluorescence intensity of ki-67 staining within the predicted nuclear area (again, total intensity was also occasionally used with equal efficacy). The specific thresholds (fluorescence intensities) varied from experiment to experiment. […]
smiles,measurement,setting,value
"Nc1ncnc2c1c(I)cn2[C@@H]1O[C@H](CO)[C@@H](O)[C@H]1O [A10, 5-iodotubercidin]",increase of the percentage of dividing β-cells above background,after 24 hours,2-3 fold
same,maximum induction of β-cell replication,"dose-response, FIG. 13c",2-3 fold
